Experimental data taken from PMC4022651, “Substitutional Analysis of the C-Terminal Domain of AbrB Revealed Its Essential Role in DNA-Binding Activity”.
Positions count from the first letter of the chain named. No signal at the amounts used counts as a negative. At least one verdict rests on a figure or table, not on a statement of the authors. For part of these data: Protein sequences can lack the tags named with them.

Columns and labels:
Experiment in all cases: EMSA
Details in all cases: up to 4 uM; 20 mM Tris-HCl pH 8, 100 mM KCl, 5 mM MgCl2, 1 mM DTT, 10% glycerol, 0.1 mg/ml poly(dI-dC), room temperature, 20 min; 1.14 nM phyC or 0.95 nM sinIR DNA; recombinant protein; residues 3-96; protein details: His6; label: 5'-32P
[1] = biological target: T1, AbrB N88D N90D (Bacillus subtilis 168) (UniProt P08874)
T1 sequence (looked up): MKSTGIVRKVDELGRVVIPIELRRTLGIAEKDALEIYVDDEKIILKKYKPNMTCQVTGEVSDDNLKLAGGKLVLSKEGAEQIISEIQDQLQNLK

[2] = biological target: T2, AbrB E77A E79A (Bacillus subtilis 168) (UniProt P08874)
T2 sequence (looked up): T1 sequence (looked up) with E77A, D88N

[3] = biological target: AbrB Q89A Q91A (Bacillus subtilis 168) (UniProt P08874)
[4] = biological target: T3, AbrB N88A N90A (Bacillus subtilis 168) (UniProt P08874)
T3 sequence (looked up): T1 sequence (looked up) with D88A

[5] = biological target: T4, AbrB Q55A Q57A (Bacillus subtilis 168) (UniProt P08874)
T4 sequence (looked up): T1 sequence (looked up) with Q55A, D88N

[6] = biological target: T5, AbrB K76A K78A (Bacillus subtilis 168) (UniProt P08874)
T5 sequence (looked up): T1 sequence (looked up) with K76A, D88N

Measured: binding result

GTGATTTAATGGCAAATGACTTCCAGAGACTAATGA (double strand) [sinIR P1 AbrB site 36 bp]
no binding: all assays above
